The values below come from article PMC6282339.

In assay [1] the target is T1, SKAP1 (SKAP-55), wild type, Flag-tagged or GFP-tagged copy (UniProt Q86WV1).
T1 sequence: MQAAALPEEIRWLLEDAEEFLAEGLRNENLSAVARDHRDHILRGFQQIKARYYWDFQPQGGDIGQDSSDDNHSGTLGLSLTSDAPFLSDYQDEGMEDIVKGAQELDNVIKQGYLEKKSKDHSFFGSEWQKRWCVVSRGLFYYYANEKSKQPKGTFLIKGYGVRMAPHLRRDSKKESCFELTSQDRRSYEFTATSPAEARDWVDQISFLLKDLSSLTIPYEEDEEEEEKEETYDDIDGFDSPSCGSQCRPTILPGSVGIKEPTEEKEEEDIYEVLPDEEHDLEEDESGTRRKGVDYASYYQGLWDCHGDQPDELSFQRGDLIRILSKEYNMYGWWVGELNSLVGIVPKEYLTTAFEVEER
The assay can be described thus: co-IP; GFP-SKAP1, Flag-SKAP1 (wild type or A17/F20/L21 mutant) and V5-RapL co-expressed in 293T cells; precipitation with anti-Flag, anti-GFP or anti-V5.

A further assay addresses V5-tagged RapL. The assay is described as above.
Assay [2] deals with Flag-tagged SKAP1 with mutations in residues A17/F20/L21 (UniProt Q86WV1). Kind of assay: co-IP; Combinations of Flag- and GFP-tagged SKAP1 expressed in 293T cells; anti-Flag precipitation; blotted with anti-SKAP1.

Results are given in words; binding and its absence hold for the method and conditions named. Binding seen in cells or lysates may run through a third protein. Binding can be weak; no strength is given. Where a sequence is shown, tags or fusion partners need not be part of it.

Consider V5-tagged RapL, for which the binding entry in assay [1] was “binds weakly”.

B1: SKAP1 (SKAP-55), wild type, Flag-tagged or GFP-tagged copy (protein, UniProt Q86WV1 1-359)
chain: MQAAALPEEIRWLLEDAEEFLAEGLRNENLSAVARDHRDHILRGFQQIKARYYWDFQPQGGDIGQDSSDDNHSGTLGLSLTSDAPFLSDYQDEGMEDIVKGAQELDNVIKQGYLEKKSKDHSFFGSEWQKRWCVVSRGLFYYYANEKSKQPKGTFLIKGYGVRMAPHLRRDSKKESCFELTSQDRRSYEFTATSPAEARDWVDQISFLLKDLSSLTIPYEEDEEEEEKEETYDDIDGFDSPSCGSQCRPTILPGSVGIKEPTEEKEEEDIYEVLPDEEHDLEEDESGTRRKGVDYASYYQGLWDCHGDQPDELSFQRGDLIRILSKEYNMYGWWVGELNSLVGIVPKEYLTTAFEVEER
Regarding B1, the binding entry (with V5-tagged RapL; in assay [2]) was “binds” in each case.
